# These are yes or no findings as the source states them, for the method shown. Binding seen in cells or lysates may run through a third protein. Here binding means that the protein was enriched with, or labelled near, the bait; the list need not be complete. No binding means not detected with the bait. Sequences can lack the tags named with a protein.
# T1: VGluRδ2 (fusion between Venus and the glutamate receptor delta2, GluRδ2) (UniProt Q61625)
# T1 sequence: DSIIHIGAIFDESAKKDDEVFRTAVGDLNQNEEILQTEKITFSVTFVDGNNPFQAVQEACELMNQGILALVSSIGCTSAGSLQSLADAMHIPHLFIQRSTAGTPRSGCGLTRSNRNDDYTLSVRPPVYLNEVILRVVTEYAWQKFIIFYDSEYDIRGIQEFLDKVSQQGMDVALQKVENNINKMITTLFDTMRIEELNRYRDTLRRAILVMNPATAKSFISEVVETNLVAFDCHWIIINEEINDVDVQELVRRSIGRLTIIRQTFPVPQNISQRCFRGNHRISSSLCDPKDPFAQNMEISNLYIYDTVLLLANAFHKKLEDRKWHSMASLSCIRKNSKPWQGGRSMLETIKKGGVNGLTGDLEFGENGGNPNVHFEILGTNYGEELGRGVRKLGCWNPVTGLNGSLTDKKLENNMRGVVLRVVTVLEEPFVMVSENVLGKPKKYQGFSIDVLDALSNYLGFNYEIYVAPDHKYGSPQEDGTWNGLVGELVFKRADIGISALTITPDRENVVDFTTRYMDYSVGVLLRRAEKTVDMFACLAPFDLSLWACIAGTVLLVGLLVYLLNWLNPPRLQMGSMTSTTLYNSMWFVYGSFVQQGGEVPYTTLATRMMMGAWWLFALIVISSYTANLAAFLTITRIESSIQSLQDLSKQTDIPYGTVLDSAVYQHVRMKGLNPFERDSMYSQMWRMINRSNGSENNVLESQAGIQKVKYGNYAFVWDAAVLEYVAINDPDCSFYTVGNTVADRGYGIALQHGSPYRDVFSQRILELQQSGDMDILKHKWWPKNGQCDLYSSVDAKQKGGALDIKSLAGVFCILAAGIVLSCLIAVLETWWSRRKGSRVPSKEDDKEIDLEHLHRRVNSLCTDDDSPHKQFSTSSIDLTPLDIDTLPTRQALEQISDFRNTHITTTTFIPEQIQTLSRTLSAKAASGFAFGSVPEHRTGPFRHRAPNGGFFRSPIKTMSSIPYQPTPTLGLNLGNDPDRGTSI
# Molecular target: T1, VGluRδ2 (fusion between Venus and the glutamate receptor delta2, GluRδ2)
# Assay: affinity purification with mass spectrometry; same anti-GFP affinity purification of pooled synaptic fractions (samples pooled from 30 and from 50 Pcp2/VGluRδ2 cerebella); SDS-PAGE, in-gel trypsin digestion, MALDI QqTOF MS and MALDI-IT MS/MS; control isolates from Pcp2/eGFP mice
row,Binder,binding
1,"internexin (protein, UniProt P46660 1-501) MSFGSEHYLCSASSYRKVFGDSSRLSARLSGPGGSGSFRSQSLSRSNVASTAACSSASSLGLGLAYRRLPASDGLDLSQAAARTNEYKIIRTNEKEQLQGLNDRFAVFIEKVHQLETQNRALEAELAALRQRHAEPSRVGELFQRELRELRAQLEEASSARAQALLERDGLAEEVQRLRARCEEESRGREGAERALKAQQRDVDGATLARLDLEKKVESLLDELAFVRQVHDEEVAELLATLQASSQAAAEVDVAVAKPDLTSALREIRAQYESLAAKNLQSAEEWYKSKFANLNEQAARSTEAIRASREEIHEYRRQLQARTIEIEGLRGANESLERQILELEERHSAEVAGYQDSIGQLESDLRNTKSEMARHLREYQDLLNVKMALDIEIAAYRKLLEGEETRFSTGGLSISGLNPLPNPSYLLPPRILSSTASKVSSAGLSLKKEEEEEEEEASKEVSKKTSKVGEGFEETLGEAVISTKKTGKSATEESTSSSQKM",binds
2,"Homer-3 (protein, UniProt Q99JP6 1-356) MSTAREQPIFSTRAHVFQIDPTTKRNWIPAGKHALTVSYFYDATRNVYRIISIGGAKAIINSTVTPNMTFTKTSQKFGQWADSRANTVYGLGFASEQQLTQFAEKFQEVKEAARLAREKSQDGGEFTSTGLALASHQVPPSPLVSTNGPGEEKLFRSQSADTPGPTERERLKKMLSEGSVGEVQWEAEFFALQDSNQRLAGALREANAAATQWRQQLEVQRAEAELLRQRVAELEAQVAVEPVRAGEKEATSQSVEQLEARVQTKDQTLKNQSTGTREAPDTAEREETQQQVQDLETRNAELEQQLRSMECNLEEARAERERARAEVGRAAQLLDVRLFELSELREGLARLAEAAP",binds
3,"delta-catenin-2 (protein, UniProt O35927 1-1247) MFARKQSGAAPFGAMPVPDQPPSASEKNSSLSPGLNTSNGDGSETETTSAILASVKEQELQFERLTRELEAERQIVASQLERCKLGSETGSMSSISSAGEQFHWQTQDGQKDIEDELTTGLELVDSCIRSLQESGILDPQDYSTSERPSLLSQSALQLNSKPEGSFQYPASYHSNQTLALGDTAPSQLPARSTQARAAGQSFSQGTTGRAGHLAGSEPAPPPPPPREPFAPSLGSAFHLPDAPPAAAALYYSSSTLPAPPRGGSPLTTTQGGSPTKLQRGGSAPEGAAYAAPRGSSPKQSPSRLAKSYSTSSPINIVVSSAGLSPIRVTSPPTVQSTISSSPIHQLSSTIGTYATLSPTKRLVHASEQYSKHSQELYATATLQRPGSLAAGSRASYSSQHGHLAPELRALQSPEHHIDPIYEDRVYQKPPMRSLSQSQGDPLPPAHTGTFRTSTAPSSPGVDSVPLQRTGSQHGPQNAAAATFQRASYAAGPASNYADPYRQLQYCASVDSPYSKSGPALPPEGTLARSPSIDSIQKDPREFGWRDPELPEVIQMLQHQFPSVQSNAAAYLQHLCFGDNKIKAEIRRQGGIQLLVDLLDHRMTEVHRSACGALRNLVYGKANDDNKIALKNCGGIPALVRLLRKTTDLEIRELVTGVLWNLSSCDALKMPIIQDALAVLTNAVIIPHSGWENSPLQDDRKIQLHSSQVLRNATGCLRNVSSAGEEARRRMRECDGLTDALLYVIQSALGSSEIDSKTVENCVCILRNLSYRLAAETSQGQHMGTDELDGLLCGETNGKDTESSGCWGKKKKKKKSQDQWDGVGPLPDCAEPPKGIQMLWHPSIVKPYLTLLSECSNPDTLEGAAGALQNLAAGSWKGWAEDVAGMAYALRSLPEGAPCLPQWSVYIRAAVRKEKGLPILVELLRIDNDRVVCAVATALRNMALDVRNKELIGKYAMRDLVHRLPGGNNSNNSGSKAMSDDTVTAVCCTLHEVITKNMENAKALRDAGGIEKLVGISKSKGDKHSPKVVKAASQVLNSMWQYRDLRSLYKKDGWSQYHFVASSSTIERDRQRPYSSSRTPSISPVRVSPNNRSASAPASPREMISLKERKTDYESAGNNATYHGTKGEHTSRKDTMTAQNTGVSTLYRNSYGAPAEDIKQNQVSTQPVPQEPSRKDYETYQPFPNSTRNYDESFFEDQVHHRPPASEYTMHLGLKSTGNYVDFYSAARPYSELNYETSHYPASPDSWV",binds
4,"Ncoa7 (protein, UniProt Q6DFV7 1-943) MDTKEEKKEQKERKQSYFARLKKKKQAKQNAEIVSAASSKSRSGKDDANSDILEQDKFNVTAEGDHSTDDKKKRKSNQLKEIRRTELKRYYSVDDNQNKTHDKKEKKMMVQKPQGTMEYTAGSQDTLNSVALKFNVTPNKLVELNKLFTHTIVPGQVLFVPDANISSSTIQLSSSTPGATVSPSSSDAEYDKLPDADLARKALKPIERVLSSTSEEDEPGVVKFLKMNCRYFTDGKGVVGGVMIVTPNNIMFDPHKSDPLVIENGCEEYGLICPMEEVVSIALYSDISHMKIKDALPSDLPRDLCPLYRPGEWEDLASEKDINPFSKFKSINKEKRQQNGERTLALDAKSVRSPEESTERTCTRIEPPDNSELWKLKNLQSSRGTTSESPSVTQLSMRAALEPTAKENCLLKGDEDFVDLEELSSQPESGINKGDATKECLSYDQKKDGPHTVMSAKKGHVQSAQEVMGPESDTELKGALDLETAEKQDEAPEVDKHSGSPENLGESTLNIHEDLDKIKLIEFYLNKNKEGSQLLENVQKSELSDRKSIEPGGIDITLSSSLPQAGDSPPEDNKEPGTLWVKGGETLPLKLDPSAEETVINNKEVLDSLGSSLDKMCHSAQMDNKSEIQLWLLKRIQVPIEDILPSKEEKSKTPPMFLCIKVGKPMRKSFASHTATMVQQYSKRRKQPEYWFAVPRERVDHLYTFFVQWSPDVYGKDAKEQGFVVVEKEELNMIDNFFSEPTTKSWEIITVEEAKRRKSTCSYYEEEEEEEEGLPILQPHSALLENMHIEQLARRLPARVQGYPWRLAYSTLEHGTSLKTLYRKSASLDSPVLLVIKDMDNQIFGAYATHPFKFSDHYYGTGETFLYTFSPNFKVFKWSGENSYFINGDISSLELGGGGGRFGLWLDADLYHGRSNSCSTFNNDILSKKEDFIVQDLEVWTFE",binds

# Continued, values first:
row,binding,Binder
1,binds,"delphilin (protein, UniProt Q0QWG9 1-1203) MPATNQGWPEDFGFQLGGSGPCFVIEVAEGSSAHAGGLRPGDQILEVEGLAVGGLSRERIVRLARRCPRVPPSLGVLPGPEGGPTALTAAWLTRRFGRSLPLSRELLRLAGGPRPDAVHRERRRKAQEFSCQVDDILGDRLTAKEQVFTALKQFAAEQRVDELVWTLTLVLPSEAQGPVLDNLRIFIPKKHRARFDEVVSQGLLGKLCRARRAQGAQRLRRSRSEERPERLLVSTRASAAPRRPDEPPPRKATSLLGGRTGPGGPRRTVRVYKGNKSFGFTLRGHGPVWIESVLPGSPAENASLKSGDRILFLNGLDMRNCSHDKVVSMLQGSGAMPTLVVEEGPVPFASDSDSLDSPTRASALTSLQWVADILPSSIRVQGRTFSQQLDHLLTPPERYGVCRALERFFQHRNIDTLIVDVYPVLDTPAKQVLWQFLYQLLTYEEQELCQEKIACFLGYTAMTEPESSLDLEPESTPEPTPEPQPRSSLRASSMCRRSLRSQGLETSLSCGPGDCPEMPLPLIPGERQAGDGTSLPETPNPKMMSAVYAELESRLNSSFKGKIGTMSKSRASPPVPSLVGTSGPRTLSGVSWPSDRLLPSPCYDPLCSGGLASPSSSESHPYASLDSSRAPSPQPGLGSIHADSPPSPDPIRPPSRRKLFAFSRPVRSRDTDRFLDALSEQLGPRLSIVDDFLTPENDYEEMSFHDDQGSFVTNERSSASECVSSSEEGSSLTYSSISDHIPPPPLSPPPPPPLPFHDPKPSSRTSDGPRGPPQSLTKPLTQINHPVPPPPPPPLPPPVPCAPPMLSRGVGHRRSETSHMSVKRLRWEQVENSEGTIWGQLGEDSDYDKLSDMVKYLDLELHFGTQKPPKPVPGPEPFRKKEVVEILSHKKAYNTSILLAHLKLTPGELRQVLMSMEPRRLEPAHLAQLLLFAPDADEEQRYQAFREAPGRLSEPDQFVLQMLSVPEYKTRLRSLHFQATLQEKTEEIRGSLECLRQASLELKNSRKLAKILEFVLAMGNYLNDGQPKTNKTTGFKINFLTELNSTKTVDGKSTFLHILAKSLSQHFPELLGFAQDLPTVPLAAKVNQRALTGDLADLHDTVSEIQVACQSMAPSSEDRFAVVMASFLETAQPALRALDGLQREAMEELGKALAFFGEDSKATTSEAFFGIFSEFMSKFERALSDLQAGDGPRSSGMVSPLAW"
2,no binding,"gephyrin (protein, UniProt Q8BUV3 1-769) MATEGMILTNHDHQIRVGVLTVSDSCFRNLAEDRSGINLKDLVQDPSLLGGTISAYKIVPDEIEEIKETLIDWCDEKELNLILTTGGTGFAPRDVTPEATKEVIEREAPGMALAMLMGSLNVTPLGMLSRPVCGIRGKTLIINLPGSKKGSQECFQFILPALPHAIDLLRDAIVKVKEVHDELEDLPSPPPPLSPPPTTSPHKQTEDKGVQCEEEEEEKKDSGVASTEDSSSSHITAAALAAKIPDSIISRGVQVLPRDTASLSTTPSESPRAQATSRLSTASCPTPKQIRRPDESKGVASRVGSLKARLPSCSSTYSVSEVQSRCSSKENILRASHSAVDITKVARRHRMSPFPLTSMDKAFITVLEMTPVLGTEIINYRDGMGRVLAQDVYAKDNLPPFPASVKDGYAVRAADGPGDRFIIGESQAGEQPTQTVMPGQVMRVTTGAPIPCGADAVVQVEDTELIRESDDGTEELEVRILVQARPGQDIRPIGHDIKRGECVLAKGTHMGPSEIGLLATVGVTEVEVNKFPVVAVMSTGNELLNPEDDLLPGKIRDSNRSTLLATIQEHGYPTINLGIVGDNPDDLLNALNEGISRADVIITSGGVSMGEKDYLKQVLDIDLHAQIHFGRVFMKPGLPTTFATLDIDGVRKIIFALPGNPVSAVVTCNLFVVPALRKMQGILDPRPTIIKARLSCDVKLDPRPEYHRCILTWHHQEPLPWAQSTGNQMSSRLMSMRSANGLLMLPPKTEQYVELHKGEVVDVMVIGRL"
